These are yes or no findings as the source states them, for the method shown. Binding seen in cells or lysates may run through a third protein. Some results given as binding are weak or reduced against the parent protein; the word gives no strength. Where a sequence is shown, tags or fusion partners need not be part of it.

Protein sequences, listed by entry. Tags and fused reporters are not part of them. Residues count along the entry.
UniProt P20029, residues 20-655: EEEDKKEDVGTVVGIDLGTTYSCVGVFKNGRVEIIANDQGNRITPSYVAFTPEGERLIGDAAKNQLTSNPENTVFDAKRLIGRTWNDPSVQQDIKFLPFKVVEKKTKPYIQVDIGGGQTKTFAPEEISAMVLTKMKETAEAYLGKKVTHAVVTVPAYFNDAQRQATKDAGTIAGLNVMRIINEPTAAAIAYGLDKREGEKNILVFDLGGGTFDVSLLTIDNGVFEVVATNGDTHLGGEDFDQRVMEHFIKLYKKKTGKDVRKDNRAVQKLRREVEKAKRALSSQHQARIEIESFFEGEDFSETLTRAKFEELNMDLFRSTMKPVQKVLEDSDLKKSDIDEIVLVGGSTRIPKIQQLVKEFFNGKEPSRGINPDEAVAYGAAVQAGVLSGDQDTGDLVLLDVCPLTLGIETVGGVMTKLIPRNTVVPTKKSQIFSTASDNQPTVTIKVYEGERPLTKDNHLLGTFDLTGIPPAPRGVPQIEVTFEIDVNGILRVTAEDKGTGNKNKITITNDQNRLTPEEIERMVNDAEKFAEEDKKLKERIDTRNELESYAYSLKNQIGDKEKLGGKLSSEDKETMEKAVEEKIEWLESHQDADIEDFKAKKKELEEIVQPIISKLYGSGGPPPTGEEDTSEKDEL

This assay addresses GRP78-Flag (mouse GRP78 with a Flag-tag) (mouse) (UniProt P20029). In words: co-IP; 293FT cells stably expressing GRP78-Flag, transiently transfected with untagged PZP for 48 h; lysate incubated with anti-DYKDDDDK (Flag) affinity gel overnight; western blot.

B1: PZP, untagged, overexpressed in 293FT cells (protein, UniProt Q61838 25-1495)
chain: ATAKPQYVVLVPSEVYSGVPEKACVSLNHVNETVMLSLTLEYAMQQTKLLTDQAVDKDSFYCSPFTISGSPLPYTFITVEIKGPTQRFIKKKSIQIIKAESPVFVQTDKPIYKPGQIVKFRVVSVDISFRPLNETFPVVYIETPKRNRIFQWQNIHLAGGLHQLSFPLSVEPALGIYKVVVQKDSGKKIEHSFEVKEYVLPKFEVIIKMQKTMAFLEEELPITACGVYTYGKPVPGLVTLRVCRKYSRYRSTCHNQNSMSICEEFSQQADDKGCFRQVVKTKVFQLRQKGHDMKIEVEAKIKEEGTGIELTGIGSCEIANALSKLKFTKVNTNYRPGLPFSGQVLLVDEKGKPIPNKNITSVVSPLGYLSIFTTDEHGLANISIDTSNFTAPFLRVVVTYKQNHVCYDNWWLDEFHTQADHSATLVFSPSQSYIQLELVFGTLACGQTQEIRIHYLLNEDIMKNEKDLTFYYLIKARGSIFNLGSHVLSLEQGNMKGVFSLPIQVEPGMAPEAQLLIYAILPNEELVADAQNFEIEKCFANKVNLSFPSAQSLPASDTHLKVKAAPLSLCALTAVDQSVLLLKPEAKLSPQSIYNLLPGKTVQGAFFGVPVYKDHENCISGEDITHNGIVYTPKHSLGDNDAHSIFQSVGINIFTNSKIHKPRFCQEFQHYPAMGGVAPQALAVAASGPGSSFRAMGVPMMGLDYSDEINQVVEVRETVRKYFPETWIWDLVPLDVSGDGELAVKVPDTITEWKASAFCLSGTTGLGLSSTISLQAFQPFFLELTLPYSVVRGEAFTLKATVLNYMSHCIQIRVDLEISPDFLAVPVGGHENSHCICGNERKTVSWAVTPKSLGEVNFTATAEALQSPELCGNKLTEVPALVHKDTVVKSVIVEPEGIEKEQTYNTLLCPQDTELQDNWSLELPPNVVEGSARATHSVLGDILGSAMQNLQNLLQMPYGCGEQNMVLFVPNIYVLNYLNETQQLTEAIKSKAINYLISGYQRQLNYQHSDGSYSTFGNHGGGNTPGNTWLTAFVLKAFAQAQSHIFIEKTHITNAFNWLSMKQKENGCFQQSGYLLNNAMKGGVDDEVTLSAYITIALLEMPLPVTHSAVRNALFCLETAWASISQSQESHVYTKALLAYAFALAGNKAKRSELLESLNKDAVKEEDSLHWQRPGDVQKVKALSFYQPRAPSAEVEMTAYVLLAYLTSESSRPTRDLSSSDLSTASKIVKWISKQQNSHGGFSSTQDTVVALQALSKYGAATFTRSQKEVLVTIESSGTFSKTFHVNSGNRLLLQEVRLPDLPGNYVTKGSGSGCVYLQTSLKYNILPVADGKAPFALQVNTLPLNFDKAGDHRTFQIRINVSYTGERPSSNMVIVDVKMVSGFIPMKPSVKKLQDQPNIQRTEVNTNHVLIYIEKLTNQTLGFSFAVEQDIPVKNLKPAPIKVYDYYETDEFTVEEYSAPFSDGSEQGNA
On to B1, for which the binding entry is “binds”.
